From PubChem BioAssay AID504834 (National Center for Advancing Translational Sciences (NCATS), 2011)
In all, about 320,000 compounds went through this assay and about 22,000 (6.9%) were called active. The inconclusive results got no clear call from the source; some entries with a clear call stand among them for comparison. Calls follow the shape of the dose curve; as a rule, active = well fitted inhibition curve with a large enough effect; inconclusive = small, poorly fitted or top-dose-only effect, or another doubt; inactive = no such curve, though single readings can be large or run the other way. Potencies beside an inconclusive call are fits to weak or partial responses and may not hold up.

assay: Primary qHTS for delayed death inhibitors of the malarial parasite plastid, 96 hour incubation; conditions: P. falciparum luciferase reporter growth; series mostly up to 28.7 µM
In short: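 Two-generation exposure (96 h) targets delayed-death phenotype. Reporter parasites carrying integrated firefly luciferase, in red cells at 2% hematocrit and 0.05% parasitemia final, kept at 37 C, 5% CO2; luminescence loss indicates inhibition.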
Potency is read from the fitted curve at half-maximal effect.

| SMILES | Potency |
| --- | --- |
| O=C(NC1CCCCCC1)c1cc(-c2ccccn2)nc2ccccc12 | inconclusive: 6.57 µM [inhibitor, partial curve, poor fit] |
| CCOc1ccc(N(C)S(=O)(=O)c2ccc3[nH]cc(C(=O)NCC4CCCO4)c(=O)c3c2)cc1 (stereo not given) | inconclusive: 11.7 µM [inhibitor, single point] |
| O=C(Nc1ccc(Nc2ccncc2)cc1)c1ccc(Nc2ccnc3ccc([N+](=O)[O-])cc23)cc1 | active: 0.0928 µM |
| COc1ccc(-c2nc(NC(C)=O)sc2-c2ccccc2)cc1 | inconclusive: 20.8 µM [inhibitor, partial curve, poor fit] |
| O=[N+]([O-])c1cc([N+](=O)[O-])c2nonc2c1Nc1ccc(O)cc1 | inactive |
| Cc1ccc(N2CC(C(=O)Nc3nnc(SCCC4OCCO4)s3)CC2=O)cc1 (stereo not given) | inconclusive: 13.1 µM [inhibitor, single point] |
| COc1ccc(/C=N/NC(=O)c2cccc(COCC(F)(F)C(F)F)c2)cc1 | inconclusive: 10.4 µM [inhibitor, partial curve] |
| Nc1nc2cc3ccccc3cc2[nH]c1=O | inconclusive: 11.7 µM [inhibitor, single point] |
| N#CCCN(C(=O)COC(=O)COc1ccccc1Cc1ccccc1)c1ccccc1 | inactive |
| C/C(=N\N=C(N)N)c1ccc(Cl)c(Cl)c1 | inconclusive: 2.62 µM [inhibitor, full curve, poor fit] |
| CC(c1ccccc1)N(CC(=O)NC1CCCCC1)S(=O)(=O)c1cccc(C(F)(F)F)c1 (stereo not given) | inconclusive: 18.5 µM [inhibitor, single point] |
| C=CCn1c(SCC(=O)N(CC)CC)nc(O)cc1=O | inactive |
| CCOC(=O)/C(=C/C=C/c1ccccc1)NC(=O)c1ccccc1 | active: 10.4 µM |
| O=C1[C@H]2[C@H](ON3CCCC[C@H]23)C(=O)N1c1ccc(Cl)cc1 | inactive |
| COCCc1nnc(NC(=O)C23CC4CC(CC(C4)C2)C3)s1 | inconclusive: 18.5 µM [inhibitor, single point] |
| CCC(CC)C(=O)NCCCN1CCOCC1 | inconclusive: 18.5 µM [inhibitor, single point] |
| CC(C)(C)OC(=O)NCCCC[C@H](NC(=O)c1nc[nH]c1C(=O)N1CCc2ccccc2C1)C(=O)OC(C)(C)C | inconclusive: 18.5 µM [inhibitor, single point] |
| CC(C)Cn1cnc2c1c(=O)n(CC(=O)NC(=O)NC(C)(C)C)c(=O)n2Cc1ccccc1 | inconclusive: 0.104 µM [inhibitor, full curve, poor fit] |
| Cc1cccc(N(C(=O)CNC(=O)c2cccs2)C(C(=O)NC2CCCC2)c2ccncc2)c1 (stereo not given) | inactive |
| CCn1cc([N+](=O)[O-])nc1C | inactive |
| Nc1c(C(=O)O)sc2nc(-c3ccccc3)cc(-c3ccc(Cl)cc3)c12 | inconclusive: 0.828 µM [inhibitor, partial curve, poor fit] |
| COc1cc(CC(=O)N(C)CC(=O)Nc2cc(C)ccc2C)cc(OC)c1OC | inactive |
| COc1cccc(/C=N/NC(=O)CNC(=O)C(c2ccccc2)c2ccccc2)c1O | inconclusive: 0.37 µM [inhibitor, full curve] |

A section from further up:

| SMILES | Potency |
| --- | --- |
| CCn1cc([N+](=O)[O-])nc1C | inactive |
| Nc1c(C(=O)O)sc2nc(-c3ccccc3)cc(-c3ccc(Cl)cc3)c12 | inconclusive: 0.828 µM [inhibitor, partial curve, poor fit] |

Later entries:

| SMILES | Potency |
| --- | --- |
| NC(=O)c1ccc(/C=N/O)nc1 | inactive |
| O=C1NC2=C(C(=O)CCC2)C(c2cccc([N+](=O)[O-])c2)N1 (stereo not given) | inconclusive: 16.5 µM [inhibitor, single point] |
| CC(C)(CNC(=O)c1ccc(NS(=O)(=O)c2ccc(F)cc2)cc1)N1CCOCC1 | inconclusive: 14.7 µM [inhibitor, partial curve] |
| Cc1cc(Nc2ccc(F)cc2)nc(N)n1 | active: 9.28 µM |
| COc1ccc(S(=O)(=O)N2CCCC2C(=O)n2nc(C)cc2C)cc1 (stereo not given) | inconclusive: 1.31 µM [inhibitor, full curve, poor fit] |
| c1ccc2c(c1)CC/C2=N/Nc1nc2ccccc2[nH]1 | inconclusive: 2.62 µM [inhibitor, full curve] |
| O=C(/C=C\Nc1ccc2c(c1)OCO2)c1ccccn1 | inconclusive: 20.8 µM [inhibitor, partial curve, poor fit] |
| COc1ccc(S(=O)(=O)N(C)CC(=O)NCCN2CCOCC2)cc1C | inactive |
| O=C(N/N=C/c1cn(-c2ccccc2)nc1-c1cccs1)c1ccncc1 | inconclusive: 18.5 µM [inhibitor, single point] |
| CCOC(=O)CNC(=S)N(Cc1ccccc1)Cc1cccs1 | inconclusive: 14.7 µM [inhibitor, partial curve, poor fit] |
| O=C(Nc1ccc(C(=O)N2CCCC2)cc1)c1ccccc1Br | inactive |
| COc1cccc(OCC(=O)NNC(=O)C(=O)Nc2ccc(OC)cc2OC)c1 | inactive |
| C=CCN(CC=C)C(=S)NC(=O)c1ccc(C)c(Br)c1 | inconclusive: 14.7 µM [inhibitor, partial curve, poor fit] |
| Cc1ccc2nc(SC(C)C(=O)N3CC(C)OC(C)C3)[nH]c2c1 (stereo not given) | inactive |
| CC1CCN(CCCn2c(SCC(=O)NC3CCCC3)nc3ccccc3c2=O)CC1 | inconclusive: 9.28 µM [inhibitor, single point] |
| CCOC(=O)N1CCN(C(=O)c2ccc3c(c2)N(Cc2cccc(Cl)c2)C(=O)c2ccccc2S3=O)CC1 (stereo not given) | inactive |
| COc1ccc(NC(=O)Cc2ccc(C)cc2)cc1S(=O)(=O)N1CCCCC1 | inconclusive: 10.4 µM [inhibitor, single point] |
| CCOC(=O)Cc1nn(Cc2ccc(Cl)cc2)c(=O)c2ccccc12 | inconclusive: 0.0329 µM [inhibitor, full curve, poor fit] |
| CS(=O)(=O)N(CC(=O)NCc1ccncc1)c1ccc(F)c(Cl)c1 | inconclusive: 11.7 µM [inhibitor, single point] |
| Cc1cc(Br)ccc1NC(=O)C1C2CCC(O2)C1C(=O)O (stereo not given) | inconclusive: 11.7 µM [inhibitor, single point] |
| COCCOC(=O)c1c(C)oc2ccc(OCc3ccccc3)cc12 | inactive |
| C[n+]1nc(Nc2cccc3ccccc23)sc1-c1ccc(C(=O)O)cc1 | inactive |
